# Laboratory results taken from US5175146A (Vical, Inc., priority 1990, dated 1992).
# Experiment: Boc solid-phase peptide synthesis; Boc-Pro-MBHA; DCC/HOBt
# Conditions: whole synthesis, analytical HPLC; amino acid analysis, scale 1 mmol
substance,measurement,value
[(SerThr)2 -Lys-7]-cCT(7-32),final HPLC purity,better than 95%
